Test results from publication PMC4843017.

Target: tubulin/RB3 complex
Assay: SEC; analytical size-exclusion migration shift assay; 15 μM each, 1 h on ice; Superdex 200 5/150 GL; 20 mM Hepes pH 7.5, 150 mM NaCl, 5% glycerol, 2 mM DTE; both purified

B1: SKAP^135–225 (domain or fragment, UniProt Q9Y448 135-225)
chain: VTKITKLRRENGQMKATDTATRRNVRKGYKPLSKQKSEEELKDKNQLLEAVNKQLHQKLTETQGELKDLTQKVELLEKFRDNCLAILESKG
binding: binds

Results are given in words; binding and its absence hold for the method and conditions named. Binding calls can cover weak binding; strength is not graded here.
